In PMC8627510:
Results are given in words; binding and its absence hold for the method and conditions named. Binding seen in cells or lysates may run through a third protein. Some entries that bind do so weakly or less than the wild type. Tags and fused reporters may be left off the sequences shown.

Assays:
[1] = molecular target: T1, Myc-tagged TAK1 (transforming growth factor β-activated kinase 1) (UniProt Q62073); experiment: co-IP; HEK293T co-transfected with Myc-tagged TAK1 and Flag-tagged USP8; whole cell lysate in 20 mM Tris HCl pH 8, 137 mM NaCl, 1% Nonidet P-40, 2 mM EDTA; anti-Myc or anti-Flag antibody or rabbit IgG, protein A Sepharose, 4 °C; western blot
T1 sequence: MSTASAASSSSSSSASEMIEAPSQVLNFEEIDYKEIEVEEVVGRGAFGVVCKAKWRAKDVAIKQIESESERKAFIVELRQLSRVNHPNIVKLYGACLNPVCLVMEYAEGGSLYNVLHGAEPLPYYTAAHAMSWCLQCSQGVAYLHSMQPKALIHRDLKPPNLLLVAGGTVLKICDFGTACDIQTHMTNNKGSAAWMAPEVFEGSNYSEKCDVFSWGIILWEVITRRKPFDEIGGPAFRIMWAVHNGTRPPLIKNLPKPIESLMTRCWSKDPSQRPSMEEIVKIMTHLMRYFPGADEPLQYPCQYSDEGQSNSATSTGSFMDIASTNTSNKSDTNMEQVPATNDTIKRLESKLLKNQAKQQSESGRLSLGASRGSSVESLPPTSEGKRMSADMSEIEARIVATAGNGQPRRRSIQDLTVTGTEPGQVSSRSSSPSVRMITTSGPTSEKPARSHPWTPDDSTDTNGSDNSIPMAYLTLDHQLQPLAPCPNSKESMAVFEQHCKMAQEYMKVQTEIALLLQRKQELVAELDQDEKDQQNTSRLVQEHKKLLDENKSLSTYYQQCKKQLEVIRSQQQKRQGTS

[2] = molecular target: T1, Myc-tagged TAK1 (transforming growth factor β-activated kinase 1); experiment: co-IP; HEK293T expressing one tagged protein (Myc-TAK1 or Flag-USP8), the partner endogenous; whole cell lysate in 20 mM Tris HCl pH 8, 137 mM NaCl, 1% Nonidet P-40, 2 mM EDTA; anti-Myc or anti-Flag antibody, protein A Sepharose, 4 °C; western blot
[3] = molecular target: T2, Flag-tagged USP8 (ubiquitin-specific peptidase 8) (UniProt Q80U87); experiment: as above
T2 sequence: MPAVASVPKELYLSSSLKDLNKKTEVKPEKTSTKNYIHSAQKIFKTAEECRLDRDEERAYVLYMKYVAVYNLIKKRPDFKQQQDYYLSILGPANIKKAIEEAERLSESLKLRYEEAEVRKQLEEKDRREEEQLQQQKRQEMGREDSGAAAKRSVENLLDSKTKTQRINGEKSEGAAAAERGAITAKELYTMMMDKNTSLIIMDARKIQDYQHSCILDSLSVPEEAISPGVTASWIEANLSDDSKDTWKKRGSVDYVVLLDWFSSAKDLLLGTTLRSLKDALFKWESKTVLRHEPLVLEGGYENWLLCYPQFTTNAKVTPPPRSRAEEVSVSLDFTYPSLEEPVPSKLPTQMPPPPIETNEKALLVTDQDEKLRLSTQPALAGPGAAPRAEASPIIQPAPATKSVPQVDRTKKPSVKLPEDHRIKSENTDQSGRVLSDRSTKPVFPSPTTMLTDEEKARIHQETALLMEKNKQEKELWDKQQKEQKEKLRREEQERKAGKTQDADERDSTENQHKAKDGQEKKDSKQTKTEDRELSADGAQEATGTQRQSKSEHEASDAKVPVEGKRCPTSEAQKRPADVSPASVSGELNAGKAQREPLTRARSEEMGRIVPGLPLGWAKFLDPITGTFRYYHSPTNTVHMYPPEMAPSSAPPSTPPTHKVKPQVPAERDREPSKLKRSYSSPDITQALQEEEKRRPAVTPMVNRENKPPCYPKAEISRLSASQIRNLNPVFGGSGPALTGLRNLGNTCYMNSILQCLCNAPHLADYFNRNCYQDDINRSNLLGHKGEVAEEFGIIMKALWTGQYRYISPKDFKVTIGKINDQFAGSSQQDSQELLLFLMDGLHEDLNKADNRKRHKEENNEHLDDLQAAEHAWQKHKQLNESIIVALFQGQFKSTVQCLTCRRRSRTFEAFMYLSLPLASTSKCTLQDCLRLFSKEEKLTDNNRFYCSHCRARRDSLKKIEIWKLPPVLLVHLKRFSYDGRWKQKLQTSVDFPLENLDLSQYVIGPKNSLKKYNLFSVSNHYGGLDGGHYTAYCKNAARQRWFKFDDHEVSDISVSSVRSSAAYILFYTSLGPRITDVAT

B1: Flag-tagged USP8 (ubiquitin-specific peptidase 8) (enzyme, UniProt Q80U87 1-1080)
chain: T2 sequence
- binding [1]: binds

B2: endogenous USP8 (enzyme, UniProt P40818 1-1118)
chain: MPAVASVPKELYLSSSLKDLNKKTEVKPEKISTKSYVHSALKIFKTAEECRLDRDEERAYVLYMKYVTVYNLIKKRPDFKQQQDYFHSILGPGNIKKAVEEAERLSESLKLRYEEAEVRKKLEEKDRQEEAQRLQQKRQETGREDGGTLAKGSLENVLDSKDKTQKSNGEKNEKCETKEKGAITAKELYTMMTDKNISLIIMDARRMQDYQDSCILHSLSVPEEAISPGVTASWIEAHLPDDSKDTWKKRGNVEYVVLLDWFSSAKDLQIGTTLRSLKDALFKWESKTVLRNEPLVLEGGYENWLLCYPQYTTNAKVTPPPRRQNEEVSISLDFTYPSLEESIPSKPAAQTPPASIEVDENIELISGQNERMGPLNISTPVEPVAASKSDVSPIIQPVPSIKNVPQIDRTKKPAVKLPEEHRIKSESTNHEQQSPQSGKVIPDRSTKPVVFSPTLMLTDEEKARIHAETALLMEKNKQEKELRERQQEEQKEKLRKEEQEQKAKKKQEAEENEITEKQQKAKEEMEKKESEQAKKEDKETSAKRGKEITGVKRQSKSEHETSDAKKSVEDRGKRCPTPEIQKKSTGDVPHTSVTGDSGSGKPFKIKGQPESGILRTGTFREDTDDTERNKAQREPLTRARSEEMGRIVPGLPSGWAKFLDPITGTFRYYHSPTNTVHMYPPEMAPSSAPPSTPPTHKAKPQIPAERDREPSKLKRSYSSPDITQAIQEEEKRKPTVTPTVNRENKPTCYPKAEISRLSASQIRNLNPVFGGSGPALTGLRNLGNTCYMNSILQCLCNAPHLADYFNRNCYQDDINRSNLLGHKGEVAEEFGIIMKALWTGQYRYISPKDFKITIGKINDQFAGYSQQDSQELLLFLMDGLHEDLNKADNRKRYKEENNDHLDDFKAAEHAWQKHKQLNESIIVALFQGQFKSTVQCLTCHKKSRTFEAFMYLSLPLASTSKCTLQDCLRLFSKEEKLTDNNRFYCSHCRARRDSLKKIEIWKLPPVLLVHLKRFSYDGRWKQKLQTSVDFPLENLDLSQYVIGPKNNLKKYNLFSVSNHYGGLDGGHYTAYCKNAARQRWFKFDDHEVSDISVSSVKSSAAYILFYTSLGPRVTDVAT
- binding [2]: binds

B3: endogenous TAK1 (enzyme, UniProt O43318 1-606)
chain: MSTASAASSSSSSSAGEMIEAPSQVLNFEEIDYKEIEVEEVVGRGAFGVVCKAKWRAKDVAIKQIESESERKAFIVELRQLSRVNHPNIVKLYGACLNPVCLVMEYAEGGSLYNVLHGAEPLPYYTAAHAMSWCLQCSQGVAYLHSMQPKALIHRDLKPPNLLLVAGGTVLKICDFGTACDIQTHMTNNKGSAAWMAPEVFEGSNYSEKCDVFSWGIILWEVITRRKPFDEIGGPAFRIMWAVHNGTRPPLIKNLPKPIESLMTRCWSKDPSQRPSMEEIVKIMTHLMRYFPGADEPLQYPCQYSDEGQSNSATSTGSFMDIASTNTSNKSDTNMEQVPATNDTIKRLESKLLKNQAKQQSESGRLSLGASRGSSVESLPPTSEGKRMSADMSEIEARIAATTAYSKPKRGHRKTASFGNILDVPEIVISGNGQPRRRSIQDLTVTGTEPGQVSSRSSSPSVRMITTSGPTSEKPTRSHPWTPDDSTDTNGSDNSIPMAYLTLDHQLQPLAPCPNSKESMAVFEQHCKMAQEYMKVQTEIALLLQRKQELVAELDQDEKDQQNTSRLVQEHKKLLDENKSLSTYYQQCKKQLEVIRSQQQKRQGTS
- binding [3]: binds
